Test results taken from paper doi:10.1101/2021.03.30.437639.
These are yes or no findings as the source states them, for the method shown. In cells and extracts the contact can be indirect. Some binding calls cover weakened binding; strength is not graded here. Where a sequence is shown, tags or fusion partners need not be part of it. One block for each binder: values may come before it.

Columns and labels:
[1] = biological target: T1, Bub1-GFP (S. pombe) (UniProt O94751); test: co-IP
T1 sequence: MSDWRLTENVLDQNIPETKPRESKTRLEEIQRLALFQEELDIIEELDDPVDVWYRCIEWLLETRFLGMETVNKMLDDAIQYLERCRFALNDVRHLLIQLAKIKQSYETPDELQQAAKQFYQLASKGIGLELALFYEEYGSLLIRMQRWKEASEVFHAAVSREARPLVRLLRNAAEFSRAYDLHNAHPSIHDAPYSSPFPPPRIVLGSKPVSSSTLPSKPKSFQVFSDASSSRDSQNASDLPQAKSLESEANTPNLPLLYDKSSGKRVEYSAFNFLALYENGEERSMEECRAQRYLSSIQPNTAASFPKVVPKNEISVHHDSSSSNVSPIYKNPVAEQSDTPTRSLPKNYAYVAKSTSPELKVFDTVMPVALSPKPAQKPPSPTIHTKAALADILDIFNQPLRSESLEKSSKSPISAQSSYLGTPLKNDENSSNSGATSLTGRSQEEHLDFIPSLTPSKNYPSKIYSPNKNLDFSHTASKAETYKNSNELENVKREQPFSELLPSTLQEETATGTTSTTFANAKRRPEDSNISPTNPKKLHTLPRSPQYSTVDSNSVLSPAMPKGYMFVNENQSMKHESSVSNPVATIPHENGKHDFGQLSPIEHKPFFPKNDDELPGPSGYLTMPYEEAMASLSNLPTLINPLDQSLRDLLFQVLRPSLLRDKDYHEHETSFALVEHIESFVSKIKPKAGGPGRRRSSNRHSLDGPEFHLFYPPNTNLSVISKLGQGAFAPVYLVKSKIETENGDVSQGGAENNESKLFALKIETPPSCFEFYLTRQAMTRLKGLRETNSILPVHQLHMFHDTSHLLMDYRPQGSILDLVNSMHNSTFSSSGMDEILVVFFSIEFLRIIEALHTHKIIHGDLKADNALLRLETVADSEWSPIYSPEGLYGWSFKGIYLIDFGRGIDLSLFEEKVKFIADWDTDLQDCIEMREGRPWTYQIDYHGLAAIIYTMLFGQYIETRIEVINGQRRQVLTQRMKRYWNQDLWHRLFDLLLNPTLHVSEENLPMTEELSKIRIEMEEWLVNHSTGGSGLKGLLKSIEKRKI

[2] = biological target: T2, Rga6(FL)-GFP (S. pombe) (UniProt O43027); test: co-IP
T2 sequence: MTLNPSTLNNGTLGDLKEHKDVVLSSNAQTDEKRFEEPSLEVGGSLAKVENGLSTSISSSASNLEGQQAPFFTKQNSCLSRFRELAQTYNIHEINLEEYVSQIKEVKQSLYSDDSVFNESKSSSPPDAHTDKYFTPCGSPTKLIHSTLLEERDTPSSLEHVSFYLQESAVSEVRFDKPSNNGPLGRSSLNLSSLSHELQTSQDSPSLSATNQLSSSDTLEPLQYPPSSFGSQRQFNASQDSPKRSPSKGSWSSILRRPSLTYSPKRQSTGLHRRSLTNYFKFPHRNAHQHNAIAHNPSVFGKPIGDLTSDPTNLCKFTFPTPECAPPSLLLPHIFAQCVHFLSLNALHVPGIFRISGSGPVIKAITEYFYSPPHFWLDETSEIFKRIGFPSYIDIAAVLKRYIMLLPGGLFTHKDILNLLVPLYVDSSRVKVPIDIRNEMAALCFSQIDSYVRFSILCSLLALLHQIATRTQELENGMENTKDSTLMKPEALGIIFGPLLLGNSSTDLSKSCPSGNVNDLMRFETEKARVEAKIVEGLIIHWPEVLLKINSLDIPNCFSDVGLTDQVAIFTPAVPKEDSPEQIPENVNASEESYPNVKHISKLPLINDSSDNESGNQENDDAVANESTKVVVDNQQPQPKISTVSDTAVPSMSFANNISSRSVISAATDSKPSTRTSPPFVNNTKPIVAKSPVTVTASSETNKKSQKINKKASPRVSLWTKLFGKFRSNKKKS

[3] = biological target: T3, Rga6-3GFP (S. pombe) (UniProt O43027); test: co-IP
T3 sequence: T2 sequence

[4] = biological target: T4, Spn2-3GFP (S. pombe) (UniProt Q09116); test: co-IP
T4 sequence: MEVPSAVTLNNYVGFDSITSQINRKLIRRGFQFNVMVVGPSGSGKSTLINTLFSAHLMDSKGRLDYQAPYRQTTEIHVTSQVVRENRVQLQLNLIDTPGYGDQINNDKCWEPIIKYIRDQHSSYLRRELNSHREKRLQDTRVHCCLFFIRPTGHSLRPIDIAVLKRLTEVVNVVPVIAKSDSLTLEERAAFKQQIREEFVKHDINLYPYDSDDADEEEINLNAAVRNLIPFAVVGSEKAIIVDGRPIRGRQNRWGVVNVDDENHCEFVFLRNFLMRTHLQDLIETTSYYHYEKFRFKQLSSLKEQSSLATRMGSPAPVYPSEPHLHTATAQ

[5] = biological target: T5, Spn2-GST (S. pombe) (UniProt Q09116); test: pull-down
T5 sequence: T4 sequence

- binding [1]: no binding
- binding [2]: binds
- binding [3]: binds
- binding [4]: binds
B1: Spn1-tdTomato (protein, UniProt O36023 1-469)
chain: MASMVLADGMPTVKDDSTRSRGSDVDSFTSTDNVTQINVEAAISENKNEEKPIQDNSEQEFNPHVSIIQRQLNGYVGFASLPNQWHRRCVRQGFNFNVLVLGESGSGKSTLVNTLLNRDVYPPTQKSLTGDFGVNPEPTVMINSSAVEIVENGISLQLNVIDTPGFGDFIDNTDCWQPVLTDIEGRYDQYLELEKHNPRSTIQDPRVHACIFFIQPTGHAISAMELRVMLALHEKVNIIPIIAKADTLTDDELNFTKEMILRDIQYHNIRIFFPPTYETDDPESVAENADIMSRIPFAIIASNTFVVNNEGKRVRGRRYPWGVVEVDNEEHSDFPKLREMLIRTHLEELKEQTNKLYEAYRTERLLSSGISQDHSVFREVNPSAKLEEERALHEEKLMKMEAEMKTIFSQKVQEKEDRLKQSENELRTRHREMKAALEKQKADLIDHKNRLMQAKAAAENEKSKRKFFK

- binding [5]: binds
B2: Spn1 (co-expressed in E. coli) (protein, UniProt O36023 1-469)
chain: B1 chain

- binding [5]: binds
B3: Spn3 (co-expressed in E. coli) (protein, UniProt P48008 1-373)
chain: MRTTKKSSKKGIPLNLMVVGDVGLGRTAFINTLCEKPLIRHNNNFDPAEASSVSPVEIVPYQTDIILEDGTKINLTVLDTPHFGEAIDNENNFDIILQYIESQYDNVLEEESRIKRNARFCDDRVHALIYFISPTGHGLRELDIELMRRLAPRVNIIPAIAKADSLTAQELQTTKEMINADIEYYKIPVYDFPYDIEEDEEAIINLSQQLRATIPFAIVSSDRLIEMNGQTVRGRAYPWGVVEVDNPRHSDFLALRSALFATHIEDLHNITSNQLYETYRTEKLSTSQLLLDSTVGLDGKNLSQHDQVLREDRLRAIELSVQKEIEEKRRQLLAREEALRALEEKLAASTAAMANASVSTLPSSVSSTNHSQS
